Results taken from US4680382A, “Analogues of actinomycin D” (priority 1986, dated 1987).
“And” between values parts separate entries of the source, which are not always exact repeats. Identical values can stand only once. *1 amine or outer side, *2 acyl side, *3 side chain or, on linkers, in order; H or OH if unused. Where a SMILES comes first, the peptide text is derived from it. Bridges are numbered along the chain shown (N, C = ends). Roman numbers before positions name the chains, in order. [ ]: non-standard residue; d: D form. Actinocin(9to1) = Cc1c2oc3c(C)ccc(C(=O)[*:1])c3nc-2c(C(=O)[*:2])c(N)c1=O; NMeV = CN[C@H](C(=O)O)C(C)C; Sar = CNCC(=O)O

System: P388 Leukemia
Experiment: Minimum effective dose and therapeutic index vs. P388 leukemia
Assay type: in vivo, mice
Experimental: These analogues were also tested in tumor-free BDF1 male mice for determination of their MTD values (Table VIII). The animals (18-22 g) were given a broad range of doses of drugs in 5% dimethyl sulfoxide-saline on days 1, 5 and 9. Drugs were administered ip and the maximum tolerated doses of agents which caused death in only 10% of the tested animals in 21 days (i.e., LD10) were recorded as MTD. […] However, the MED values of 7-hydroxy-AMD and its precursor AMD-OZL 10a are high and are seven to tenfold of the MED values of 4a and 8a. On the basis of these MED values, the therapeutic indices of 8a and 4a are 70 and 96. The therapeutic index of 2a is 13, of 10a 10, and of AMD only 4.
^a Drugs administered ip once on days 1, 5 and 9 starting 1 day after
tumor implantation. Determinations were made from analysis of plotted
^b MED (minimum effective dose) is the dose (milligram/kilogram)
providing an increase in life span of 45% over control in P388 tumor

| Compound | therapeutic index MTD/MED |
| --- | --- |
| Cc1c2oc3c(C)c(O)cc(C(=O)N[C@@H]4C(=O)N[C@H](C(C)C)C(=O)N5CCC[C@H]5C(=O)N(C)CC(=O)N(C)[C@@H](C(C)C)C(=O)O[C@@H]4C)c3nc-2c(C(=O)N[C@@H]2C(=O)N[C@H](C(C)C)C(=O)N3CCC[C@H]3C(=O)N(C)CC(=O)N(C)[C@@H](C(C)C)C(=O)O[C@@H]2C)c(N)c1=O [2a, 7-hydroxyactinomycin D, reference compound] | 13 |
| Cc1c2oc3c(C)c(O)c(N)c(C(=O)NC4C(=O)NC(C(C)C)C(=O)N5CCCC5C(=O)N(C)CC(=O)N(C)C(C(C)C)C(=O)OC4C)c3nc-2c(C(=O)NC2C(=O)NC(C(C)C)C(=O)N3CCCC3C(=O)N(C)CC(=O)N(C)C(C(C)C)C(=O)OC2C)c(N)c1=O (centres unmarked) [4a, 7-Hydroxy-8-amino-actinomycin D] | 96 |
| Cc1c2oc3c(C)c4oc(-c5ccccc5)nc4c(C(=O)NC4C(=O)NC(C(C)C)C(=O)N5CCCC5C(=O)N(C)CC(=O)N(C)C(C(C)C)C(=O)OC4C)c3nc-2c(C(=O)NC2C(=O)NC(C(C)C)C(=O)N3CCCC3C(=O)N(C)CC(=O)N(C)C(C(C)C)C(=O)OC2C)c(N)c1=O [8a, 7-Amino-9,11-dimethyl-2-phenyl-8H-8-oxooxazolo [4,5-b]phenoxazine 4,6-bis[carbonyl-L-threonyl-D-valyl-L-prolylsarcosyl-L-N-methylvaline(threonine hydroxyl)] lactone] | 70 and 60 |
| Cc1c2oc3c(C)c4oc(-c5ccccc5)nc4c(C(=O)NC4C(=O)NC(C(C)C)C(=O)N5CCCC5C(=O)N(C)CC(=O)N(C)C(C(C)C)C(=O)OC4C)c3nc-2c(C(=O)NC2C(=O)NC(C(C)C)C(=O)N3CCCC3C(=O)N(C)CC(=O)N(C)C(C(C)C)C(=O)OC2C)cc1=O (centres unmarked) [10a, 2-Phenyl-AMD--OZL] | 10 |
| Cc1c2oc3c(C)ccc(C(=O)N[C@@H]4C(=O)N[C@H](C(C)C)C(=O)N5CCC[C@H]5C(=O)N(C)CC(=O)N(C)[C@@H](C(C)C)C(=O)O[C@@H]4C)c3nc-2c(C(=O)N[C@@H]2C(=O)N[C@H](C(C)C)C(=O)N3CCC[C@H]3C(=O)N(C)CC(=O)N(C)[C@@H](C(C)C)C(=O)O[C@@H]2C)c(N)c1=O [AMD, Actinomycin D] (I: T[dV]P[Sar][NMeV] / II: T[dV]P[Sar][NMeV]; ester I:1-I:C, II:1-II:C; linker I:N-II:N via Actinocin(9to1)) | 4 |
